# Measurements published in paper PMC3887180.
# By UniProt entry, the sequences of proteins in these tests, tags left out.
# UniProt P32121: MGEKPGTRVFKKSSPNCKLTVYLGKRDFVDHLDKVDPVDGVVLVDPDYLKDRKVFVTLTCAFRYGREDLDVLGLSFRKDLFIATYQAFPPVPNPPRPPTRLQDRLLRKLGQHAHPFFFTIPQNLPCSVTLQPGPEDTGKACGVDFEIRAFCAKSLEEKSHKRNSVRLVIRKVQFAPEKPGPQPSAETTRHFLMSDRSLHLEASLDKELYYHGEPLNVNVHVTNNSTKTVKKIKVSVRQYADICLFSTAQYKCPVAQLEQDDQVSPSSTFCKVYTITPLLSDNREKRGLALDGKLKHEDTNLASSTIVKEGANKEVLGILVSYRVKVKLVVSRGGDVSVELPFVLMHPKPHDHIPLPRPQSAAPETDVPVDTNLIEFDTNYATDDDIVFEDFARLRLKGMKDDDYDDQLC
# UniProt Q9BTU6: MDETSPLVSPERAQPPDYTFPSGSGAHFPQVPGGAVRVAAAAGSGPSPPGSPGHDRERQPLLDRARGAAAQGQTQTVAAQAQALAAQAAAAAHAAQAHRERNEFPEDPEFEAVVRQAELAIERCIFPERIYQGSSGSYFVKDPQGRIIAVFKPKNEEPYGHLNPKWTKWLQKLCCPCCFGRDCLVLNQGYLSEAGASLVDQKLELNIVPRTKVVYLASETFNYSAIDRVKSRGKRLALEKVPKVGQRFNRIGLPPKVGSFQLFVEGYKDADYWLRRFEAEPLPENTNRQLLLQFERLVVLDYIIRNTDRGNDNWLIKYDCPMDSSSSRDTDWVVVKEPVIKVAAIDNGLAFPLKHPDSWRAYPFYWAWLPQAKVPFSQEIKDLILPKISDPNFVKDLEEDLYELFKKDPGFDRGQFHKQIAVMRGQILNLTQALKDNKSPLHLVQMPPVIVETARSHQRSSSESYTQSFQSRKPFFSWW
# Results are given in words; binding and its absence hold for the method and conditions named. In cells and extracts the contact can be indirect. Some binding calls cover weakened binding; strength is not graded here. For some assays here: Sequences can lack the tags named with a protein.
# How the values were obtained:
# [1] = target: endogenous β-arrestin2 (NB4 cells) (human (endogenous in NB4)) (UniProt P32121); assay: co-IP; endogenous proteins of NB4 cells (cytoplasmic fraction in Fig. 6C; cells with Wnt3a or control CM for 2 h); precipitation with anti-β-arrestin antibodies A1CT and A2CT, protein G-Sepharose, 4 °C; Western blot
# [2] = target: HA-β-arrestin2 (UniProt P32121); assay: co-IP; overexpressed tagged proteins in HEK293T; Nonidet P-40 lysis buffer (50 mM Tris pH 7.4, 150 mM NaCl, 1 mM EDTA, 0.5% Nonidet P-40), 4 °C, anti-tag antibody and protein G-Sepharose overnight, six washes; Western blot; in Fig. 7A, B with PI4KIIα siRNA or overexpressed PI4KIIα or PIP5KIβ
binding [1],binding [2],Molecule
binds,,endogenous PI4KIIα (NB4 cells) (from UniProt Q9BTU6 1-479) (enzyme)
,binds,"FLAG-Amer1 (protein, UniProt Q5JTC6 1-1135) METQKDEAAQAKGAAASGSTREQTAEKGAKNKAAEATEGPTSEPSSSGPGRLKKTAMKLFGGKKGICTLPSFFGGGRSKGSGKGSSKKGLSKSKTHDGLSEAAHGPEDVVSEGTGFSLPLPELPCQFPSSQSAHGALETGSRCKTSVAGATEKAVAEKFPSMPKPKKGLKGFFSSIRRHRKSKVTGAEQSEPGAKGPERVRARPHEHVSSAPQVPCFEETFQAPRKENANPQDAPGPKVSPTPEPSPPATEKMACKDPEKPMEACASAHVQPKPAPEASSLEEPHSPETGEKVVAGEVNPPNGPVGDPLSLLFGDVTSLKSFDSLTGCGDIIAEQDMDSMTDSMASGGQRANRDGTKRSSCLVTYQGGGEEMALPDDDDEEEEEEEEVELEEEEEEVKEEEEDDDLEYLWETAQMYPRPNMNLGYHPTTSPGHHGYMLLDPVRSYPGLAPGELLTPQSDQQESAPNSDEGYYDSTTPGFEDDSGEALGLVRRDCLPRDSYSGDALYEFYEPDDSLENSPPGDDCLYDLHGRSSEMFDPFLNFEPFLSSRPPGAMETEEERLVTIQKQLLYWELRREQLEAQEARAREAHAREAHAREAYTREAYGREAYAREAHTWEAHGREARTREAQAREVRCRETQVRETQARQEKPVLEYQMRPLGPSVMGLAAGVSGTSQISHRGITSAFPTTASSEPDWRDFRPLEKRYEGTCSKKDQSTCLMQLFQSDAMFEPDMQEANFGGSPRRAYPTYSPPEDPEEEEVEKEGNATVSFSQALVEFTSNGNLFSSMSCSSDSDSSFTQNLPELPPMVTFDIADVERDGEGKCEENPEFHNDEDLAASLEAFELGYYHKHAFNNYHSRFYQGLPWGVSSLPRYLGLPGLHPRPPPAAMALNRRSRSLDTAETLEMELSNSHLVQGYLESDELQAQQEDSDEEDEEEEEGEWSRDSPLSLYTEPPGAYDWPAWAPCPLPVGPGPAWISPNQLDRPSSQSPYRQATCCIPPMTMSISLSVPESRAPGESGPQLARPSHLHLPMGPCYNLQPQASQSMRARPRDVLLPVDEPSCSSSSGGFSPSPLPQAKPVGITHGIPQLPRVRPEHPQPQPTHYGPSSLDLSKERAEQGASLATSYSSTAMNGNLAK"
